Measurements reported in PubChem BioAssay AID1224826 (NIAID, 2016)

- Test: 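Genes that change LPS-induced Tnf promoter activity in mouse macrophages when knocked down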 (primary screen)
- System: RAW264.7 G9 macrophages from mouse bearing reporters for p65 (GFP) and the Tnf promoter (mCherry)
- Reagents: siRNA pool against mouse genes, 100 nM
- Timing: 16 h of LPS stimulation, after 2 days of siRNA transfection
- Treatment: bacterial lipopolysaccharide (Salmonella minnesota R595), 10 ng/ml
- Measurement: 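Nuclear mCherry signal of the Tnf promoter reporter measured by imaging after background removal, scaled to each plate median and turned into robust z-scores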
- Scale: Tnf reporter robust z-score: higher = stronger Tnf promoter reporter signal after LPS
- Hit rule: 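a well counts as active at a score of -1.3 or below (Tlr4 knock-down control median) or above 3 (raised signal); controls and wells holding fewer than 50 cells are excluded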
- Meaning of the calls: active = Tnf reporter clearly lowered or raised; inactive = no clear change in Tnf reporter
In all, the deposit lists about 17,000 reagents; below is an unselected part. About 1,110 of them (6.6%) were called active. 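Active means lowered or raised reporter signal; replicate intensities are raw and not normalised per plate.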 The numbers tell different reagents against one gene apart. Further read-outs or replicates are left out here.

target | reagent no. | Tnf reporter robust z-score | fewer than 50 cells in well | outcome
Ppp2r2b | 1 | 0.84 | enough cells in well | inactive
Rhou | 1 | 0.19 | enough cells in well | inactive
Mgat5 | 1 | 0.1 | enough cells in well | inactive
Pmf1 | 1 | – | fewer than 50 cells per well; well left out of calls | inactive
Serpina10 | 1 | -0.35 | enough cells in well | inactive
Lad1 | 1 | -0.76 | enough cells in well | inactive
Ctso | 1 | 1.96 | enough cells in well | inactive
Ang | 1 | 0.35 | enough cells in well | inactive
Rpl36a | 1 | -0.42 | enough cells in well | inactive
Sult5a1 | 1 | – | fewer than 50 cells per well; well left out of calls | inactive
Oaz2 | 1 | 0.96 | enough cells in well | inactive
Aqp6 | 1 | 2.27 | enough cells in well | inactive
Irf6 | 1 | -0.35 | enough cells in well | inactive
Zfp146 | 1 | 1.01 | enough cells in well | inactive
Ssty2 | 1 | – | fewer than 50 cells per well; well left out of calls | inactive
Popdc2 | 1 | 1.04 | enough cells in well | inactive
B4galt4 | 1 | -0.08 | enough cells in well | inactive
Hexim1 | 1 | 0.27 | enough cells in well | inactive
Acbd3 | 1 | -0.1 | enough cells in well | inactive
Ccndbp1 | 1 | 0.13 | enough cells in well | inactive
Nipsnap3b | 1 | 0.96 | enough cells in well | inactive
Rchy1 | 1 | 1.69 | enough cells in well | inactive
Ap2a1 | 1 | -0.6 | enough cells in well | inactive
Bmp1 | 1 | 1.23 | enough cells in well | inactive
Ing1 | 1 | -0.23 | enough cells in well | inactive
Tm2d2 | 1 | – | fewer than 50 cells per well; well left out of calls | inactive
Bsg | 1 | 1.05 | enough cells in well | inactive
Abcc12 | 1 | -0.69 | enough cells in well | inactive
Vmn1r84 | 1 | -0.1 | enough cells in well | inactive
Pphln1 | 1 | – | fewer than 50 cells per well; well left out of calls | inactive
Or52b4 | 1 | 4.07 | enough cells in well | active
Sprr2j-ps | 1 | 1.47 | enough cells in well | inactive
Gmfb | 1 | 0.31 | enough cells in well | inactive
Gem | 1 | 0.81 | enough cells in well | inactive
Ccr1 | 1 | 0.09 | enough cells in well | inactive
Chrna3 | 1 | -1.47 | enough cells in well | active
H2ac18 | 1 | -0.32 | enough cells in well | inactive
Ott | 1 | – | fewer than 50 cells per well; well left out of calls | inactive
Krcc1 | 1 | 0.17 | enough cells in well | inactive
D830013H23Rik | 1 | -1.63 | enough cells in well | active
Tnp2 | 1 | – | fewer than 50 cells per well; well left out of calls | inactive
Or4a74 | 1 | 1.71 | enough cells in well | inactive
Vmn2r-ps11 | 1 | 0.41 | enough cells in well | inactive
Blvrb | 1 | -0.18 | enough cells in well | inactive
Hivep2 | 1 | -1.72 | enough cells in well | active
Trpv4 | 1 | 0.31 | enough cells in well | inactive
Nfic | 1 | 0.34 | enough cells in well | inactive
Nfic | 2 | 0.03 | enough cells in well | inactive
Sp5 | 1 | – | fewer than 50 cells per well; well left out of calls | inactive
Klhl9 | 1 | -0.74 | enough cells in well | inactive

Reagents above called active (4):
target | reagent no. | Tnf reporter robust z-score | fewer than 50 cells in well | outcome
Or52b4 | 1 | 4.07 | enough cells in well | active
Chrna3 | 1 | -1.47 | enough cells in well | active
D830013H23Rik | 1 | -1.63 | enough cells in well | active
Hivep2 | 1 | -1.72 | enough cells in well | active

Further reagents follow.
target | reagent no. | Tnf reporter robust z-score | fewer than 50 cells in well | outcome
Wee2 | 1 | -0.16 | enough cells in well | inactive
Slc10a3 | 1 | -0.26 | enough cells in well | inactive
Zfp101 | 1 | 0.56 | enough cells in well | inactive
Adgrl4 | 1 | -0.27 | enough cells in well | inactive
Gzmc | 1 | -1.15 | enough cells in well | inactive
Baiap2l1 | 1 | -1.01 | enough cells in well | inactive
Unc5cl | 1 | – | fewer than 50 cells per well; well left out of calls | inactive
C1ql1 | 1 | 0.58 | enough cells in well | inactive
Guk1 | 1 | 1.56 | enough cells in well | inactive
Trdv2-2 | 1 | 0.43 | enough cells in well | inactive
Airim | 1 | 0.32 | enough cells in well | inactive
Rybp | 1 | -0.41 | enough cells in well | inactive
Gtf2a2 | 1 | -0.98 | enough cells in well | inactive
Or8b43 | 1 | 1.96 | enough cells in well | inactive
Dusp4 | 1 | 1.09 | enough cells in well | inactive
Nme7 | 1 | -0.34 | enough cells in well | inactive
Or1ad1 | 1 | 1.36 | enough cells in well | inactive
Tmem239 | 1 | 0.46 | enough cells in well | inactive
Rell2 | 1 | – | fewer than 50 cells per well; well left out of calls | inactive
Adad1 | 1 | 2.05 | enough cells in well | inactive
Ostm1 | 1 | – | fewer than 50 cells per well; well left out of calls | inactive
Shank3 | 1 | 1.66 | enough cells in well | inactive
Alg6 | 1 | -0.96 | enough cells in well | inactive
Get3 | 1 | -0.23 | enough cells in well | inactive
Reg3b | 1 | 0.09 | enough cells in well | inactive
